Test results as given in patent US20020076736A1, “Methods of affecting laminin 5 processing” (priority 2000, published 2002).
Some entries share one result that the patent states for a list of compounds. At least one compound was matched to its structure with a doubt left.

System: keratinocytes
Experiment: Keratinocyte migration, Boyden chambers
Assay type: cell-based
Method: Compounds 1 and 2 were used to examine the functional effects of processing by BMP-1 related proteins on keratinocyte migration. […] Keratinocytes were analyzed for migration in Boyden chambers in the presence of increasing amounts of the inhibitors. […] (Koivunen et al. (1999) Nature Biotechnology 17:768-774.)

Row | SMILES | inhibition of migration at optimal doses
1 | COc1ccc(CCN(CCC(=O)NO)S(=O)(=O)c2ccc(NC(=O)NCc3ccccc3)cc2)cc1 [Compound 2] | greater than 80%
2 | O=C(CCCC1C(=O)N(C23CC4CC(CC(C4)C2)C3)C(=O)N1Cc1ccccn1)NO (centres unmarked) [Compound 1] | greater than 80%
